Measurements from article PMC11489326, “Characterization of lignin-degrading enzyme PmdC, which catalyzes a key step in the synthesis of polymer precursor 2-pyrone-4,6-dicarboxylic acid” (The Journal of Biological Chemistry, 2024).
These are yes or no findings as the source states them, for the method shown. Some entries that bind do so weakly or less than the wild type.

Sequences of proteins named here, by UniProt entry; tags and fusion partners are left off.
UniProt Q8RNX9: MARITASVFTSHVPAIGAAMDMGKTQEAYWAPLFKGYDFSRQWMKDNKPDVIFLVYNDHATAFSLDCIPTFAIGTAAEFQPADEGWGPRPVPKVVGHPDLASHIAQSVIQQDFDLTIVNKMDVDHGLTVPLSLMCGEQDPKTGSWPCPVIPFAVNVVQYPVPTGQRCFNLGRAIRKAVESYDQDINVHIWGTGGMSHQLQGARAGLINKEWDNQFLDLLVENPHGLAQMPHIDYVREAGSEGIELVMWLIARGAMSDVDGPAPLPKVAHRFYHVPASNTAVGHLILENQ

Molecular target: T1, PmdA, subunit of protocatechuate 4,5-dioxygenase PmdAB from Comamonas testosteroni (Comamonas testosteroni) (UniProt Q8RNY0)
T1 sequence: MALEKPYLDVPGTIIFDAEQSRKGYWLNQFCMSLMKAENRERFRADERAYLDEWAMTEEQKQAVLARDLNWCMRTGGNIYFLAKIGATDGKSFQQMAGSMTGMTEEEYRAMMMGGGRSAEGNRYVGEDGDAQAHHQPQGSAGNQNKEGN
Experiment: co-purification on Ni-NTA; His6-PmdA and PmdB co-expressed in E. coli; lysate loaded on Ni-NTA agarose in an anaerobic chamber, washed with 20, 50 and 75 mM imidazole, eluted with 500 mM imidazole; 25 mM Hepes pH 7.5, 250 mM NaCl, 1 mM DTT; SDS-PAGE

binding: binds
Substance: PmdB, subunit of protocatechuate 4,5-dioxygenase PmdAB from Comamonas testosteroni (from UniProt Q8RNX9 1-289) (enzyme)
